Measurements from the supplement of paper PMC12823440, “Inhibitors supercharge kinase turnover through native proteolytic circuits” (Nature, 2025).
Structures can show the parent of a compound that is named as a salt. The list shows a part of the results. The calls rarely recur for the same compound in another form.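 In K562 cells expressing nanoluciferase-fused kinases, luminescence was recorded at 4 h intervals between 2 and 18 h, normalized as percent of control with DMSO at 100% and a positive control at 0%. A significant (2 sigma) signal drop marks a time point as decreased. The authors' rule for a hit is not shown and takes in more than the number of time points.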

Sequences of proteins named here, by UniProt entry; tags and fusion partners are left off. A change or cut given only in a name is not applied to a line headed by its entry.
UniProt Q9BUB5: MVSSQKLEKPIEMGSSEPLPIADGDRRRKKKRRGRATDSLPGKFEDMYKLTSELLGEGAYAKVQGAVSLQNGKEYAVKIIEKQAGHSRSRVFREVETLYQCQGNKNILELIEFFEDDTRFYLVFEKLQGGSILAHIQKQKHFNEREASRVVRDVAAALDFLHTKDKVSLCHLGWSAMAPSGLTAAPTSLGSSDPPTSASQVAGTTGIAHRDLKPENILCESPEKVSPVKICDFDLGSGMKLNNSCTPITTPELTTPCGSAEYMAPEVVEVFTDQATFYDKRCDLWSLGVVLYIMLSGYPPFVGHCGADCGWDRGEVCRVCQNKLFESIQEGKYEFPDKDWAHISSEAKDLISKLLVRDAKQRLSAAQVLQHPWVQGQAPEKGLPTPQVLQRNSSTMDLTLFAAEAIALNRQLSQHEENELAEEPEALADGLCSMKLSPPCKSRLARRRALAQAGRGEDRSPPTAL
UniProt Q16620, whole entry, looked up: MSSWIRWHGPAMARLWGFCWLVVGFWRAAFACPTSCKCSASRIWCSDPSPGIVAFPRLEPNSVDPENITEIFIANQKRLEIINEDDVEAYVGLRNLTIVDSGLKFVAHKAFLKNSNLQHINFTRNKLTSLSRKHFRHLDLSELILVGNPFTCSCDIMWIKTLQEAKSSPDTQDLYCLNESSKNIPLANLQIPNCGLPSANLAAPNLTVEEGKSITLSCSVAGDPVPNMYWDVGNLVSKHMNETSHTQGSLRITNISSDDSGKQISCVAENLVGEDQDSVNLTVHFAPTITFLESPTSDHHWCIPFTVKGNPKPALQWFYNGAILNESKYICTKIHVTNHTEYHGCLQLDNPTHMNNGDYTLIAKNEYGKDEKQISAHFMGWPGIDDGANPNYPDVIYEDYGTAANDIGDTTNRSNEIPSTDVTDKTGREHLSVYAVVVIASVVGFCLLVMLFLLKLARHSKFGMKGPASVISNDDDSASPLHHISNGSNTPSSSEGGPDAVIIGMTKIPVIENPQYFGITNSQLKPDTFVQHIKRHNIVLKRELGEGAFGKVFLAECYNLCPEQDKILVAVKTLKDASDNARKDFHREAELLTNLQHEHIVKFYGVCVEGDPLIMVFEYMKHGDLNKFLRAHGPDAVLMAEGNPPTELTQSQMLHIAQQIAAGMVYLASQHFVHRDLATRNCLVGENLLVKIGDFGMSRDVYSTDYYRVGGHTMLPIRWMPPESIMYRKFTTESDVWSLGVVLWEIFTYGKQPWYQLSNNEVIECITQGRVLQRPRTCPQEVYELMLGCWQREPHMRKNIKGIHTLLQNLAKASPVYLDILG
UniProt Q16288, whole entry, looked up: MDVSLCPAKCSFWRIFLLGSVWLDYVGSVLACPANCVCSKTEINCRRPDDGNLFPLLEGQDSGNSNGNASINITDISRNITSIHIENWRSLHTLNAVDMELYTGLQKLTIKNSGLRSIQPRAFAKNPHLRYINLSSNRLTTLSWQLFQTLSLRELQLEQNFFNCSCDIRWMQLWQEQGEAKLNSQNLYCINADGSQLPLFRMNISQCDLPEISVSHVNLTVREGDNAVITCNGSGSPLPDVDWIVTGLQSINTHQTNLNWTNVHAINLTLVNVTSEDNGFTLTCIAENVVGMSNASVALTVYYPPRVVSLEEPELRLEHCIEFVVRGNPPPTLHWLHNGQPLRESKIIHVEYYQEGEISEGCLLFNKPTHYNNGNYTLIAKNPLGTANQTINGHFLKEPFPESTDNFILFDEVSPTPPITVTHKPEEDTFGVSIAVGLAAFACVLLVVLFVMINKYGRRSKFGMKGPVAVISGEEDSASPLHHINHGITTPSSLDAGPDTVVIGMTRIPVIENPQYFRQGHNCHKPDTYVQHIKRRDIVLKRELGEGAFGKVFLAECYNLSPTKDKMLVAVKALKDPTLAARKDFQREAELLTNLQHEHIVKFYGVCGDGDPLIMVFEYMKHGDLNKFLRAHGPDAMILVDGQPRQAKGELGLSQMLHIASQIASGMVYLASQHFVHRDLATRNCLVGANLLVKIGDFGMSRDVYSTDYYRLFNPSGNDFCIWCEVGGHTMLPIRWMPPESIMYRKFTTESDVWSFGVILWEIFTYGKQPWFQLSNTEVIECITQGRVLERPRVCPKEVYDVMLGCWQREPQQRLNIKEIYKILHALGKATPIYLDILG
UniProt O96013: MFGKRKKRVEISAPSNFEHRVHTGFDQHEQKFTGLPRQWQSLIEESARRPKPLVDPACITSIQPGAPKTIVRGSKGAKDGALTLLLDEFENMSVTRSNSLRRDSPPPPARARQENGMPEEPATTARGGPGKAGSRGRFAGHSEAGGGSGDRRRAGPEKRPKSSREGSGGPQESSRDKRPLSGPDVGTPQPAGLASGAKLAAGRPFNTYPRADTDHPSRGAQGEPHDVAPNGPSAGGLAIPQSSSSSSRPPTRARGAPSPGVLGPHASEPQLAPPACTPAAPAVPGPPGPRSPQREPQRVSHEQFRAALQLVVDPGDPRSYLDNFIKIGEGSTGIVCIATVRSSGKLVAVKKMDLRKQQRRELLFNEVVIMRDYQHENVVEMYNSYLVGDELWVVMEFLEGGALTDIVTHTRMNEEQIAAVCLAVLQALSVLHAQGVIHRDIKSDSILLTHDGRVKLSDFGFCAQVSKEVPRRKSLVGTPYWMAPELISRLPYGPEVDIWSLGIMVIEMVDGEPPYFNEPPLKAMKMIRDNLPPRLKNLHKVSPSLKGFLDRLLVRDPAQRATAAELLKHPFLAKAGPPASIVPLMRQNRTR
UniProt Q96KB5: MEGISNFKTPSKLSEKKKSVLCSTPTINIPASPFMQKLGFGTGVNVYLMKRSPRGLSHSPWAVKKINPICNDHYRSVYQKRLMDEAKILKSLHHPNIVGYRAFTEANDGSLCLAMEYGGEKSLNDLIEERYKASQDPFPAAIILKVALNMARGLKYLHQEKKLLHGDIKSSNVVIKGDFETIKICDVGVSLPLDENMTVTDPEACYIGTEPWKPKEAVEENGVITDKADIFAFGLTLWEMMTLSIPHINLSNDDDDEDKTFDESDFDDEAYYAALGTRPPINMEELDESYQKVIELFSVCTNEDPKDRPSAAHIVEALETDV
UniProt Q15118, whole entry, looked up: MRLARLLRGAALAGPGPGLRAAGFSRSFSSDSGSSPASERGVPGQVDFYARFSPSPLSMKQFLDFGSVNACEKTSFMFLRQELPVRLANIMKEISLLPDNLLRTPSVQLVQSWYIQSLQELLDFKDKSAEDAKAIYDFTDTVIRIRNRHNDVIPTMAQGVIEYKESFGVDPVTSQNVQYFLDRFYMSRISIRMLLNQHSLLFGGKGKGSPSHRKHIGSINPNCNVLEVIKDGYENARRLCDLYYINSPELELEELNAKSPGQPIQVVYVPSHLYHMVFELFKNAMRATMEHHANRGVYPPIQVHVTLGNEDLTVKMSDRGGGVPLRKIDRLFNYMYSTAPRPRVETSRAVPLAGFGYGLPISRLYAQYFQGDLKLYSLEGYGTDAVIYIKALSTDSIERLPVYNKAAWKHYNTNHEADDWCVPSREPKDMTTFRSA
UniProt O15530: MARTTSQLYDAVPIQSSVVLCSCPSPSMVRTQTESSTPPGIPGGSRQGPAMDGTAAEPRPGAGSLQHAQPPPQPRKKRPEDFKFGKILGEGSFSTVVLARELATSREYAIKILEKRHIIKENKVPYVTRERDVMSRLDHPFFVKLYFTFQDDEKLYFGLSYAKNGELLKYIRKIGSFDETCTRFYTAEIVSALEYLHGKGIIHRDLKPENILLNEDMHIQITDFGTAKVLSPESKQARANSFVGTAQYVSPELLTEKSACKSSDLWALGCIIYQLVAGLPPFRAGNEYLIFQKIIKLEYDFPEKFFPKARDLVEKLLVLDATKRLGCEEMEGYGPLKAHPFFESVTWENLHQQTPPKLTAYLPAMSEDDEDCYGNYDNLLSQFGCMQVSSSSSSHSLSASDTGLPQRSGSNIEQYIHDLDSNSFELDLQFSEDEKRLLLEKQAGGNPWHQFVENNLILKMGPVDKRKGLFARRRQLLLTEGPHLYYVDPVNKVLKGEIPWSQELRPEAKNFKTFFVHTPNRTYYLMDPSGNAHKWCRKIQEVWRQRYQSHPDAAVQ
UniProt Q9UBF8: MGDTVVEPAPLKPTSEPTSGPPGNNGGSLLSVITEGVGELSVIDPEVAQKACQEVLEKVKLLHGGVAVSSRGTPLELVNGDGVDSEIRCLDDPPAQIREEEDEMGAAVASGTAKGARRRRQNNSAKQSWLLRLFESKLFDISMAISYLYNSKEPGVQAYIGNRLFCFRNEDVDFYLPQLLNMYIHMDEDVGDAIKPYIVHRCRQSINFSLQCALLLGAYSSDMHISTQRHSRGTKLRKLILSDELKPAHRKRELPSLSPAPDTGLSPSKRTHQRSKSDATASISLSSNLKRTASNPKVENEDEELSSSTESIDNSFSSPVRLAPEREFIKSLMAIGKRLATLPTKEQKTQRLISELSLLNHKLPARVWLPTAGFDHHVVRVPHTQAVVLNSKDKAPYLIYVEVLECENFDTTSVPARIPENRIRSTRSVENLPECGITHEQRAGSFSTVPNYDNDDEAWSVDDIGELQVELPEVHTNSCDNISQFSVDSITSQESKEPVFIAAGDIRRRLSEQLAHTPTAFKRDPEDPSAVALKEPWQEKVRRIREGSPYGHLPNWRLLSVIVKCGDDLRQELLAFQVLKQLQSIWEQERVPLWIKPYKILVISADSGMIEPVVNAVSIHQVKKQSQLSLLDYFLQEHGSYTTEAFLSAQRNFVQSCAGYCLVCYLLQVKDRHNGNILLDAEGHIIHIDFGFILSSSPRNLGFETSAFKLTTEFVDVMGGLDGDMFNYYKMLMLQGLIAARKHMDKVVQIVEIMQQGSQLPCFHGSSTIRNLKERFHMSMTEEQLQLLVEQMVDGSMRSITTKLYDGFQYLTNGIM
UniProt P53350, whole entry: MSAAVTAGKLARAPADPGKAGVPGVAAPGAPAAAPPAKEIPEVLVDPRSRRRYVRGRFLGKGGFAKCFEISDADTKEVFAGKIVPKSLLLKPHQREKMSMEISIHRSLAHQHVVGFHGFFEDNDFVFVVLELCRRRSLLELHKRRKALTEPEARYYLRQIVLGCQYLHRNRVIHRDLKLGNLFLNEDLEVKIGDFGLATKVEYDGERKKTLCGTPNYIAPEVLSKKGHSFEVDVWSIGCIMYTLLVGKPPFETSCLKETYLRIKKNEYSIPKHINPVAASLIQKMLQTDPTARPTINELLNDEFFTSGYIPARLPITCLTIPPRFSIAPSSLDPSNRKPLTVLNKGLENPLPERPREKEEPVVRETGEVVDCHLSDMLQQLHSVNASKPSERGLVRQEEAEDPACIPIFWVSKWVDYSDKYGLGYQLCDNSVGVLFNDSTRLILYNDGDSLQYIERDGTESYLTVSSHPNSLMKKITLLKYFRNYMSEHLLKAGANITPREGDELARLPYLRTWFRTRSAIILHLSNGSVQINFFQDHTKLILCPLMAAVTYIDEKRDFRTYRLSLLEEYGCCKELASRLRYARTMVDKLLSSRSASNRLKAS
UniProt Q14289, whole entry, looked up: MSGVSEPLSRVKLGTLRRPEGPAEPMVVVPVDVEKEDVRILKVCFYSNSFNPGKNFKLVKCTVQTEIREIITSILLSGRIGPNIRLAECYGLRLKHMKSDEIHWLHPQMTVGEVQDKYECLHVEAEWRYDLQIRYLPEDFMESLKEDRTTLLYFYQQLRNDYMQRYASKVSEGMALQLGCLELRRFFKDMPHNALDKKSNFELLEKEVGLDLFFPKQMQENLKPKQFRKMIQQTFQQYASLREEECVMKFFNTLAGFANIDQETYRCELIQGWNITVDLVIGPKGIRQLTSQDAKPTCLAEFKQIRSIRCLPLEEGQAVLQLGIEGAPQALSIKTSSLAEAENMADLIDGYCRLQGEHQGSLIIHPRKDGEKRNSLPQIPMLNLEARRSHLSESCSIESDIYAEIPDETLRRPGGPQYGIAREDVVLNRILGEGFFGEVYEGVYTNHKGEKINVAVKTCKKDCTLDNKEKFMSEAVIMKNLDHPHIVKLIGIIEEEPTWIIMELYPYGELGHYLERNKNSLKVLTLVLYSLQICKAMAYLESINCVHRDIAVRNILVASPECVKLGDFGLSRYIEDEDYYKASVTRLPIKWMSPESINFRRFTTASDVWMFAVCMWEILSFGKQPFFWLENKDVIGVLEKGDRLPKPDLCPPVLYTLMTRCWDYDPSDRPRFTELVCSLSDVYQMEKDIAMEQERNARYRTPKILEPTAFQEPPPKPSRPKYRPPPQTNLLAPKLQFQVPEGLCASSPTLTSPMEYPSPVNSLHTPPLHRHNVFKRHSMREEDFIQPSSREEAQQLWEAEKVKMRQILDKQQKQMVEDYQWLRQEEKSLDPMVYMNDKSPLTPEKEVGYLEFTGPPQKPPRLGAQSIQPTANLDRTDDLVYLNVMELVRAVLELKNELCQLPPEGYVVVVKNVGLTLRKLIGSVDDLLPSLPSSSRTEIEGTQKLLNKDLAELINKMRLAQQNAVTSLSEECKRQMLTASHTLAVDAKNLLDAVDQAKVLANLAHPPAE

Legend:
Assay in all cases: kinase-Nluc reporter destabilization hit call (1 = scored as downregulated) (binary); higher = compound decreases kinase abundance
Details in all cases: K562, 2-18 h
[1] = target: MAPK1 (UniProt P28482)
[2] = target: MAPK4 (UniProt P31152)
[3] = target: MAPKAPK2 (UniProt P49137)
[4] = target: MKNK1 (UniProt Q9BUB5)
[5] = target: NTRK2 (UniProt Q16620)
[6] = target: NTRK3 (UniProt Q16288)
[7] = target: PAK4 (UniProt O96013)
[8] = target: PBK (UniProt Q96KB5)
[9] = target: PDGFRB (UniProt P09619)
[10] = target: PDK1 (UniProt Q15118)
[11] = target: PDPK1 (UniProt O15530)
[12] = target: PIK4CA (UniProt P42356)
[13] = target: PIK4CB (UniProt Q9UBF8)
[14] = target: PLK1 (UniProt P53350)
[15] = target: PRKAA1 (UniProt Q13131)
[16] = target: PRKCA (UniProt P17252)
[17] = target: PTK2 (UniProt Q05397)
[18] = target: PTK2B (UniProt Q14289)
[19] = target: RAF1 (UniProt P04049)
[20] = target: RAF1_S257L (clone: RAF1_mut) (UniProt P04049)

Measured: kinase-Nluc reporter destabilization hit call

Oc1cccc(-c2nc(N3CCOCC3)c3oc4ncccc4c3n2)c1
inactive: [1]; 10 µM 0 | [2]; 10 µM 0 | [3]; 10 µM 0 | [4]; 10 µM 0 | [5]; 10 µM 0 | [6]; 10 µM 0 | [7]; 10 µM 0 | [8]; 10 µM 0 | [9]; 10 µM 0 | [10]; 10 µM 0 | [11]; 10 µM 0 | [12]; 10 µM 0 | [13]; 10 µM 0 | [14]; 10 µM 0 | [15]; 10 µM 0 | [16]; 10 µM 0 | [17]; 10 µM 0 | [18]; 10 µM 0 | [19]; 10 µM 0 | [20]; 10 µM 0

C=CC(=O)Nc1cc(Nc2nccc(-c3cn(C)c4ccccc34)n2)c(OC)cc1N(C)CCN(C)C [Osimertinib]
inactive: [1]; 2.5 µM 0 | [2]; 2.5 µM 0 | [3]; 2.5 µM 0 | [4]; 2.5 µM 0 | [5]; 2.5 µM 0 | [6]; 2.5 µM 0 | [7]; 2.5 µM 0 | [8]; 2.5 µM 0 | [9]; 2.5 µM 0 | [10]; 2.5 µM 0 | [11]; 2.5 µM 0 | [12]; 2.5 µM 0 | [13]; 2.5 µM 0 | [14]; 2.5 µM 0 | [15]; 2.5 µM 0 | [16]; 2.5 µM 0 | [17]; 2.5 µM 0 | [18]; 2.5 µM 0 | [19]; 2.5 µM 0 | [20]; 2.5 µM 0

CNC(=O)c1cc(Oc2ccc(NC(=O)Nc3ccc(Cl)c(C(F)(F)F)c3)c(F)c2)ccn1 [Regorafenib (monohydrate)]
inactive: [1]; 2.5 µM 0 | [2]; 2.5 µM 0 | [3]; 2.5 µM 0 | [4]; 2.5 µM 0 | [5]; 2.5 µM 0 | [6]; 2.5 µM 0 | [7]; 2.5 µM 0 | [8]; 2.5 µM 0 | [9]; 2.5 µM 0 | [10]; 2.5 µM 0 | [11]; 2.5 µM 0 | [12]; 2.5 µM 0 | [13]; 2.5 µM 0 | [14]; 2.5 µM 0 | [15]; 2.5 µM 0 | [16]; 2.5 µM 0 | [17]; 2.5 µM 0 | [18]; 2.5 µM 0 | [19]; 2.5 µM 0 | [20]; 2.5 µM 0

COc1cc2c(Oc3ccc4[nH]c(C)cc4c3F)ncnc2cc1OCCCN1CCCC1 [Cediranib]
inactive: [1]; 2.5 µM 0 | [2]; 2.5 µM 0 | [3]; 2.5 µM 0 | [4]; 2.5 µM 0 | [5]; 2.5 µM 0 | [6]; 2.5 µM 0 | [7]; 2.5 µM 0 | [8]; 2.5 µM 0 | [9]; 2.5 µM 0 | [10]; 2.5 µM 0 | [11]; 2.5 µM 0 | [12]; 2.5 µM 0 | [13]; 2.5 µM 0 | [14]; 2.5 µM 0 | [15]; 2.5 µM 0 | [16]; 2.5 µM 0 | [17]; 2.5 µM 0 | [18]; 2.5 µM 0 | [19]; 2.5 µM 0 | [20]; 2.5 µM 0

CN(C)C(=O)c1cc2cnc(Nc3ccc(N4CCNCC4)cn3)nc2n1C1CCCC1 [Ribociclib succinate hydrate]
inactive: [1]; 2.5 µM 0 | [2]; 2.5 µM 0 | [3]; 2.5 µM 0 | [4]; 2.5 µM 0 | [5]; 2.5 µM 0 | [6]; 2.5 µM 0 | [7]; 2.5 µM 0 | [8]; 2.5 µM 0 | [9]; 2.5 µM 0 | [10]; 2.5 µM 0 | [11]; 2.5 µM 0 | [12]; 2.5 µM 0 | [13]; 2.5 µM 0 | [14]; 2.5 µM 0 | [15]; 2.5 µM 0 | [16]; 2.5 µM 0 | [17]; 2.5 µM 0 | [18]; 2.5 µM 0 | [19]; 2.5 µM 0 | [20]; 2.5 µM 0

Cc1[nH]c(/C=C2\C(=O)Nc3ccc(F)cc32)c(C)c1C(=O)NCCN1CCCC1 [Toceranib]
inactive: [1]; 2 µM 0 | [2]; 2 µM 0 | [3]; 2 µM 0 | [4]; 2 µM 0 | [5]; 2 µM 0 | [6]; 2 µM 0 | [7]; 2 µM 0 | [8]; 2 µM 0 | [9]; 2 µM 0 | [10]; 2 µM 0 | [11]; 2 µM 0 | [12]; 2 µM 0 | [13]; 2 µM 0 | [14]; 2 µM 0 | [15]; 2 µM 0 | [16]; 2 µM 0 | [17]; 2 µM 0 | [18]; 2 µM 0 | [19]; 2 µM 0 | [20]; 2 µM 0

CC(=O)N[C@H](Cc1ccc(O)cc1)C(=O)N[C@H](CCCN=C(N)N)C(=O)N[C@H](Cc1ccccc1)C(N)=O
inactive: [1]; 10 µM 0 | [2]; 10 µM 0 | [3]; 10 µM 0 | [4]; 10 µM 0 | [5]; 10 µM 0 | [6]; 10 µM 0 | [7]; 10 µM 0 | [8]; 10 µM 0 | [9]; 10 µM 0 | [10]; 10 µM 0 | [11]; 10 µM 0 | [12]; 10 µM 0 | [13]; 10 µM 0 | [14]; 10 µM 0 | [15]; 10 µM 0 | [16]; 10 µM 0 | [17]; 10 µM 0 | [18]; 10 µM 0 | [19]; 10 µM 0 | [20]; 10 µM 0

Cc1nc2ccc(-n3c(-c4nonc4N)nc4cnccc43)cc2[nH]1
inactive: [1]; 10 µM 0 | [2]; 10 µM 0 | [3]; 10 µM 0 | [4]; 10 µM 0 | [5]; 10 µM 0 | [6]; 10 µM 0 | [7]; 10 µM 0 | [8]; 10 µM 0 | [9]; 10 µM 0 | [10]; 10 µM 0 | [11]; 10 µM 0 | [12]; 10 µM 0 | [13]; 10 µM 0 | [14]; 10 µM 0 | [15]; 10 µM 0 | [16]; 10 µM 0 | [17]; 10 µM 0 | [18]; 10 µM 0 | [19]; 10 µM 0 | [20]; 10 µM 0

CN(C)C(=O)c1cc2cnc(Nc3ccc(N4CCNCC4)cn3)nc2n1C1CCCC1 [Ribociclib hydrochloride]
inactive: [1]; 2.5 µM 0 | [2]; 2.5 µM 0 | [3]; 2.5 µM 0 | [4]; 2.5 µM 0 | [5]; 2.5 µM 0 | [6]; 2.5 µM 0 | [7]; 2.5 µM 0 | [8]; 2.5 µM 0 | [9]; 2.5 µM 0 | [10]; 2.5 µM 0 | [11]; 2.5 µM 0 | [12]; 2.5 µM 0 | [13]; 2.5 µM 0 | [14]; 2.5 µM 0 | [15]; 2.5 µM 0 | [16]; 2.5 µM 0 | [17]; 2.5 µM 0 | [18]; 2.5 µM 0 | [19]; 2.5 µM 0 | [20]; 2.5 µM 0

C=CC(=O)Nc1cc2c(Nc3ccc(F)c(Cl)c3)ncnc2cc1C#CC(C)(C)N1CCN(C)CC1
inactive: [1]; 2.5 µM 0 | [2]; 2.5 µM 0 | [3]; 2.5 µM 0 | [4]; 2.5 µM 0 | [5]; 2.5 µM 0 | [6]; 2.5 µM 0 | [7]; 2.5 µM 0 | [8]; 2.5 µM 0 | [9]; 2.5 µM 0 | [10]; 2.5 µM 0 | [11]; 2.5 µM 0 | [12]; 2.5 µM 0 | [13]; 2.5 µM 0 | [14]; 2.5 µM 0 | [15]; 2.5 µM 0 | [16]; 2.5 µM 0 | [17]; 2.5 µM 0 | [18]; 2.5 µM 0 | [19]; 2.5 µM 0 | [20]; 2.5 µM 0
